Patent US20120045392A1
Results are given in words; binding and its absence hold for the method and conditions named. Some results given as binding are weak or reduced against the parent protein; the word gives no strength.

Columns and labels:
[1] = molecular target: pyro-Glu(3-40/42)-Aβ; assay: SPR / Europium ELISA
[2] = molecular target: pyro-Glu(3-40/42)-Aβ; assay: SPR / Europium ELISA, monomers
[3] = molecular target: pyro-Glu(3-40/42)-Aβ; assay: immunostaining of APPswe/PS1dE9 mouse brain sections, PGA5 at 1:100 (FIG. 3)
[4] = molecular target: pyro-Glu(3-40/42) fibrils; assay: summary of SPR / Europium ELISA, fibrils
[5] = molecular target: pyro-Glu(3-40/42) fibrils; assay: SPR / Europium ELISA, fibrils
[6] = molecular target: pyro-Glu(3-40/42)-Aβ; assay: summary of SPR / Europium ELISA, monomers

binding [1]: binds | binding [2]: binds | binding [3]: binds | binding [4]: binds | binding [5]: binds | binding [6]: binds
B1: PGA 5 (antibody, IgG1, V domains shown)
VH: EVKLVESGGGLVQPGGSLRLSCVTSGFTFTENYMSWVRQPPGKALEWLGFIRNKANGYTTEYSASVKGRFTISRDNSQSILYLQMNTLRAEDSATYYCARDWDYGSSHAMDYWGQGTSVTVSS
VL: DILLTQSPAILSVSPGERVSFSCRASQNIGTSMHWFQQRTNGSPRLLIKYASESVSGIPSRFSGSGSGTDFTLSINSVESGDIADYYCQQSNSWPFTFGSGTKLEI
